Screening data, single-dose tests

A: 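Assay of Toxoplasma gondii numbers, read through their beta-galactosidase reporter with a colour substrate. Compounds at 10 µM. Higher reads as fewer parasites (inferred from which compounds were picked for retests). Size under these conditions: about 67,000 compounds, about 260 of them at 50% or above in at least one test.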
B: 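Cell assay of Leishmania donovani living inside macrophages; the read-out is not stated. Concentration: 30 µM. The record gives no direction; compounds that gave an IC50 in retests scored well above the rest, so higher reads as stronger inhibition. Of about 69,000 compounds tested this way, about 1,000 (1.5%) reached 50% or more in at least one test.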

Values are the deposited “Percent Effect”, in %. The record does not define 0% and 100%; most values in the screen are far below 50% and negative numbers occur (in some assays of this library far below -100). This is an unselected part of the compounds tested. Two or more numbers in one place are separate tests of the same structure; such repeats can differ widely. A dash means the value is not listed here; it may have been measured.

structure | A | B
CN(C)C(CNC(=O)c1nc(N2CCOCC2)ncc1Cl)c1ccco1 (centres undefined) | -2.854 | 11.25
Cc1cc(NCc2noc(C(C)C)n2)nc(-c2ccccc2)n1 | 7.093 | 19.45
CSCC(=O)N1CCCC(CCC(=O)N(C)CCc2ccccn2)C1 (centres undefined) | 2.703 | 26.56
CC(C)c1nn(C)c(N2CCOCC2)c1CNCCS(C)(=O)=O | -1.579 | 26.34
O=C(C1CCOC1)N1CCC2(CC1)Cc1ccccc1CNC2=O (centres undefined) | -12.1 | 1.464
[H][C@@]12COC[C@H](C(=O)N3CCCO3)[C@]1([H])CN(Cc1c(C)noc1C)C2 | -20.27 | 7.38
CN(CC(=O)N1CCC(C(O)c2ccccc2)CC1)c1cnccn1 (centres undefined) | -0.7539 | 22.63
Cc1cc(C)c(CNC(=O)N(C)Cc2sccc2C)c(=O)[nH]1 | -6.089 | 3.483
O=C(N1CCCC1)N1CCN(c2ccc(Cl)nn2)C(=O)C1 | 4.009 | 5.916
O=C(O)C(F)(F)F.O=C(O)C(F)(F)F.[H][C@@]12COC[C@@H](C(=O)Nc3cccnc3)[C@]1([H])CN(C1CCCC1)C2 | 2.834 | 27.26
COc1ccc(-c2noc(Cn3cnc(C)c3)n2)c(OC)c1OC | 6.965 | 10.24
COC(=O)c1ccc(N2CCN(C(=O)c3cc(C)on3)C(C)C2)cc1 (centres undefined) | - | 30.46
CCc1nc(C)c([C@H]2CN(C)C[C@@H]2C(=O)NCCc2cnccn2)[nH]1 | -3.924 | 23.64
CC(NC(=O)NCCn1ccnc1)c1ccc2c(c1)OCCO2 (centres undefined) | 9.277 | 19.88
Cc1ccc(NC(=O)Cn2ncc(SCC(N)=O)c(Cl)c2=O)cc1 | -19.04 | 22.16 and 42.42
O=C(O)C(F)(F)F.O[C@@H]1CCN(CC2CCOC2)[C@H]1Cc1ccccc1 (some centres undefined) | -0.4787 | 25.87
CCN(Cc1cccc(Cl)c1)Cn1nc(C)c2c(C)onc2c1=O | -0.2872 | -4.595
CC(=O)N1CCN(C(=O)Cn2ccc3c(Cl)cccc32)CC1 | -12.86 | 1.884
NCCCn1nc(C(F)(F)F)c2c1CCC2 | -31.56 | 23.29
CC1(C)CN(C(=O)c2occc2COc2cccc(C#N)c2)CCO1 | -42.88 | -22.84
COc1ccc2c(c1)c(C(=O)Nc1n[nH]c(C(C)C)n1)cn2C(C)C | 9.595 | 7.145
CC(C(=O)Nc1ccccc1F)S(C)(=O)=O (centres undefined) | 28.06 | 15.32
CCOCCNC(=O)c1cccc(S(=O)(=O)NC[C@@H]2C[C@H](F)CN2)c1 | -22.71 | -32.62
Cc1cccc(N2CCc3ncc(CNS(C)(=O)=O)n3CC2)n1.O=C(O)C(F)(F)F | 3.565 | 7.336
O=C(c1coc(COc2cccc3cnccc23)n1)N1CCCCCC1 | -4.657 | -5.965
OC1(CNCCSc2ccccn2)CNCCOC1 (centres undefined) | - | 1.253
CN(C)Cc1nn(C)c2c1CN(C(=O)c1ccc[nH]1)C2.O=C(O)C(F)(F)F | -19.09 | 10.71
Nc1ccnc(N2C[C@H](O)[C@@H](N3CCN(c4ccccn4)CC3)C2)n1 | 6.717 | -4.776
O=C(C1CN(c2ncc(F)cn2)CC12CCOCC2)N1CC=CC1.O=C(O)C(F)(F)F (centres undefined) | -4.506 | -0.7137
CCc1csc(C2CCCN(C(=O)c3ccc(OC)nc3)C2)n1 (centres undefined) | 8.418 | -5.274
O=C(C[S+]([O-])Cc1ccc(F)cc1)N1CCc2sccc2C1 (centres undefined) | 9.224 | -28.43
CCN(c1ccccc1C(=O)O)S(=O)(=O)c1cccc2cccnc12 | 3.702 | 0.5418
CC(C)[C@H]1COC(=O)N1Cc1noc(-c2ccccc2)n1 | -6.256 | 7.899
N#Cc1cccc(OCCN2CCNC(=O)C2c2cccs2)c1 (centres undefined) | -1.097 | -4.075
Cc1noc(C(C)NC(=O)[C@@H](C)NC(=O)OC(C)(C)C)n1 (some centres undefined) | 10.82 | 17.01
CN(Cc1ccc(F)cc1)Cc1nc(-c2cnccn2)no1 | -1.095 | 15.65
O=C(O)C(F)(F)F.O=C(O)C(F)(F)F.O=C(O)C(F)(F)F.[H][C@@]12CO[C@@H](CN(C)Cc3cccnc3)[C@]1([H])CCN(Cc1ccoc1)C2 | 4.378 | 34.83
COC(=O)C(C)NCc1ccc2[nH]c(C)c(C)c2c1 (centres undefined) | 2.912 | -19.31
Cc1cc(C)n(CC2CN(CCC(=O)NC3CCCCC3)CCO2)n1 (centres undefined) | -2.583 | 9.945
Cc1cc(NC(=O)NCCc2ccc(S(N)(=O)=O)cc2)n(C)n1 | -2.605 | 3.004
CC(C)Oc1ncccc1CNC(=O)N1CCC1c1ccccc1 (centres undefined) | -9.174 | 0.895
CN(C)C(=O)C1CCN(Cn2ccc(-c3ccc(F)cc3)n2)CC1 | 0.7901 | 15.15
CCCn1cc(C(=O)NC(C(=O)O)c2ccccc2C(F)(F)F)c(C)n1 (centres undefined) | -10.09 | 3.656
Cc1cnn(CCNCC(=O)NCc2ccccc2)c1 | -0.4394 | 17.41
CNC(=O)c1coc(-c2csc(C)n2)c1 | 4.628 | 22.21
Cc1nnc(N2CCCC3(CN(Cc4cnn(C)c4)CCO3)C2)o1.O=C(O)C(F)(F)F.O=C(O)C(F)(F)F (centres undefined) | 4.216 | 29.41
O=S(=O)(c1ccccc1)N1CCC[C@]2(C[C@H](OCC3CC3)CO2)C1 | 0.5294 | 29.7
O=C(c1cc(C2CCCN(Cc3ccccn3)C2)no1)N1CCCC1 (centres undefined) | -17.98 | 13.17
CC(C)N1CCn2c(COCC3CCOCC3)cnc2C1C.O=C(O)C(F)(F)F (centres undefined) | 2.253 | 5.395
Cc1nc(Nc2nccs2)cc(C2CCCN2C2CCOCC2)n1 (centres undefined) | 15.44 | 14.43
COc1ccc(CC(=O)NC(CC(=O)O)c2ccc(F)cc2)cc1OC (centres undefined) | -1.328 | -12.46
Cc1ccc(CNCCOc2ccc(S(C)(=O)=O)cc2)cc1 | 7.718 | -9.128
Cc1ccc(NC2CCN(C(=O)CCNS(C)(=O)=O)CC2)nn1 | -1.185 | 22.8
OCCN1CCN(CC2(O)CCCCC2)CC1 | 2.586 | 12.89
Cn1cc(CNCC2(O)CCCCC2)c(-c2cccnc2)n1 | 2.044 | -5.025
CC(C)C(C(=O)N1CCCN(Cc2nccn2C)CC1)N1CCCC1 (centres undefined) | 1.292 | 6.376
Cc1cnn(CC(C)NCc2ccc(OCc3cscn3)cc2)c1 (centres undefined) | 0.3765 | 24.38
O=C(O)C(F)(F)F.[H][C@]12CCN(c3ccc(C)nn3)C[C@@]1([H])CN(Cc1cccc(C)n1)C2 | 5.739 | 17.4
CCc1nnc(S(=O)(=O)Cc2cc(Cl)c3c(c2)OCO3)n1C | -0.4063 | 3.454
NC(=O)CCCNC(=O)COc1ccccc1C(F)(F)F | -3.279 | 13.61
O=C(CSc1ccc2c(c1)OCCO2)NS(=O)(=O)c1ccccc1F | 10.91 | 10.53

The first 5 entries again:

structure,A,B
CN(C)C(CNC(=O)c1nc(N2CCOCC2)ncc1Cl)c1ccco1 (centres undefined),-2.854,11.25
Cc1cc(NCc2noc(C(C)C)n2)nc(-c2ccccc2)n1,7.093,19.45
CSCC(=O)N1CCCC(CCC(=O)N(C)CCc2ccccn2)C1 (centres undefined),2.703,26.56
CC(C)c1nn(C)c(N2CCOCC2)c1CNCCS(C)(=O)=O,-1.579,26.34
O=C(C1CCOC1)N1CCC2(CC1)Cc1ccccc1CNC2=O (centres undefined),-12.1,1.464

The values are deposited in ChEMBL (CHEMBL3988442, “University of Dundee, Small-Polar-MMV Screening Library” (2021)).